Data from patent publication US20140100183A1, “CENTRAL ADMINISTRATION OF STABLE FORMULATIONS OF THERAPEUTIC AGENTS FOR CNS CONDITIONS” (The Regents of the University of Colorado, a body corporate, priority 2006, published 2014).
The name of at least one read-out is uncertain.

Assay: Solubility relative to therapeutic concentration for CSF delivery
Type: physicochemical
Settings: rat ventricles

| SMILES | increase of formulation concentration over the aqueous solubility limit needed for therapeutic concentrations |
| --- | --- |
| NC(=O)OCC(COC(N)=O)c1ccccc1 [Felbamate, 2-phenyl-1,3-propanediol dicarbamate] | five-fold |
| NC(=O)N1c2ccccc2C=Cc2ccccc21 [Tegretol, 5H-dibenz[b,f]azepine-5-carboxamide] | five-fold |
